Results are given in words; binding and its absence hold for the method and conditions named. Sequences can lack the tags named with a protein.

Chains of the proteins cited; added tags and fusions are not shown. Residues count along the entry.
UniProt P03422, residues 231-507: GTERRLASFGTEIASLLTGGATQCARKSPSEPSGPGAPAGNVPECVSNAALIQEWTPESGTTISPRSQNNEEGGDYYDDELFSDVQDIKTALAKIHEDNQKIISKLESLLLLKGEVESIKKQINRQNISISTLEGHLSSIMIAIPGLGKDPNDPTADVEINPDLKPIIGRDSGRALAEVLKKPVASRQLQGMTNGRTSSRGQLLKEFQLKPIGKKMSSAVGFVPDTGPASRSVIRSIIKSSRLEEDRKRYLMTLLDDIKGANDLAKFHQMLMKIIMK

Binding data for two molecules are collected here from PMC2686699, “The interaction between the measles virus nucleoprotein and the Interferon Regulator Factor 3 relies on a specific cellular environment” (Virology Journal, 2009).

For this test, the target named is BD-N_TAILΔ2,3 (N 401-488, two-hybrid bait) (measles virus) (UniProt P04851). Briefly: two-hybrid; Lex-A two hybrid assay in yeast by mating (MB226α baits, MB210a preys); growth and β-galactosidase on galactose/raffinose -His-Ura-Trp + X-Gal; repeated two times.

“AD-PCT (P 231-507, two-hybrid prey) (from UniProt P03422 231-507) (domain or fragment)”: the binding entry is recorded as “no binding”.

B1: AD-IRF3 (full length IRF-3, two-hybrid prey) (protein, UniProt Q14653 1-427)
chain: MGTPKPRILPWLVSQLDLGQLEGVAWVNKSRTRFRIPWKHGLRQDAQQEDFGIFQAWAEATGAYVPGRDKPDLPTWKRNFRSALNRKEGLRLAEDRSKDPHDPHKIYEFVNSGVGDFSQPDTSPDTNGGGSTSDTQEDILDELLGNMVLAPLPDPGPPSLAVAPEPCPQPLRSPSLDNPTPFPNLGPSENPLKRLLVPGEEWEFEVTAFYRGRQVFQQTISCPEGLRLVGSEVGDRTLPGWPVTLPDPGMSLTDRGVMSYVRHVLSCLGGGLALWRAGQWLWAQRLGHCHTYWAVSEELLPNSGHGPDGEVPKDKEGGVFDLGPFIVDLITFTEGSGRSPRYALWFCVGESWPQDQPWTKRLVMVKVVPTCLRALVEMARVGGASSLENTVDLHISNSHPLSLTSDQYKAYLQDLVEGMDFQGPGES
For the molecule B1, the binding entry is “no binding”.
